Laboratory results: PubChem BioAssay AID652243 (Drosophila RNAi Screening Center, 2013)
The screen tested about 24,000 reagents; below is an unselected part of those that have a named target and a result. In the full data, 246 (1%) are marked active. 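Plates not normalised; calls are printed but the firefly/Renilla ratio behind them is not deposited; fold cut for lowering reported inconsistently.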 Raw values are not corrected between plates. Not given: the amount of reagent.

Screen: 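Knock-downs that decrease or increase androgen receptor reporter signal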 (primary screen)
Cell system: Drosophila S2R+ cells
Reagent: long dsRNA against Drosophila genes
Time to read-out: 72 h (48 h, then 24 h hormone)
Challenge: synthetic androgen R1881 at 10 nM for 24 h
Read-out: 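Per-well raw luminescence of the androgen-driven firefly reporter and of the Renilla control, two replicates each, without normalisation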
Scale: firefly reporter light: higher = more light from androgen-responsive reporter; Renilla control light: higher = more constitutive control signal (cell number, transfection)
Call rule: 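Hit when the log firefly-to-Renilla ratio dropped or increased by a fixed fold versus the mean of GFP or LacZ controls across duplicate plates; lowering cut given as 1.5 and as 3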
Calls: active = hit: reporter lowered or raised; inactive = no hit

Gene | amplicon | firefly reporter light, replicate 1 | firefly reporter light, replicate 2 | Renilla control light, replicate 1 | Renilla control light, replicate 2 | activity call
CG15530 (GeneID 43589) | DRSC15067 | 2.08e5 | 2.20e5 | 2.77e6 | 3.27e6 | inactive
CG15530 (GeneID 43589) | DRSC29873 | 9.68e5 | 4.96e5 | 8.77e5 | 9.34e5 | inactive
Pvf3 (GeneID 33995) | DRSC02284 | 2.23e5 | 1.78e5 | 2.68e6 | 1.29e6 | inactive
Pvf3 (GeneID 33995) | DRSC02285 | 2.09e5 | 1.88e5 | 1.83e6 | 1.65e6 | inactive
Pvf3 (GeneID 33995) | DRSC02286 | 1.04e5 | 1.04e5 | 8.28e5 | 7.14e5 | inactive
Pvf3 (GeneID 33995) | DRSC02751 | 1.83e5 | 87750 | 1.58e6 | 8.99e5 | inactive
Pvf3 (GeneID 33995) | DRSC25172 | 5.64e5 | 4.16e5 | 6.26e5 | 5.31e5 | inactive
Pvf3 (GeneID 33995) | DRSC28641 | 2.98e5 | 3.53e5 | 9.53e5 | 8.39e5 | inactive
intr (GeneID 43397) | DRSC14528 | 70569 | 1.25e5 | 4.53e5 | 7.84e5 | inactive
CG12035 (GeneID 38217) | DRSC08238 | 6.36e5 | 6.29e5 | 8.87e5 | 9.57e5 | inactive
CG43349 (GeneID 12797873) | DRSC00039 | 7.05e5 | 9.76e5 | 1.37e6 | 1.83e6 | inactive
CG13001 (GeneID 32684) | DRSC24970 | 8.16e5 | 1.07e6 | 1.02e6 | 1.24e6 | inactive
l(1)sc (GeneID 30983) | DRSC18789 | 1.80e5 | 1.85e5 | 2.72e6 | 1.93e6 | inactive
l(1)sc (GeneID 30983) | DRSC28734 | 4.88e5 | 4.71e5 | 8.84e5 | 9.22e5 | inactive
CG6304 (GeneID 35032) | DRSC02948 | 1.06e6 | 1.38e6 | 1.99e6 | 2.08e6 | inactive
CG6304 (GeneID 35032) | DRSC27729 | 2.86e5 | 2.47e5 | 6.30e5 | 8.09e5 | inactive
tll (GeneID 43656) | DRSC17085 | 1.91e5 | 1.32e5 | 2.19e6 | 2.43e6 | inactive
tll (GeneID 43656) | DRSC28584 | 9.43e5 | 9.45e5 | 3.02e6 | 2.27e6 | inactive
tll (GeneID 43656) | DRSC38950 | 1.26e6 | 1.40e6 | 2.26e6 | 2.02e6 | inactive
Hmx (GeneID 42110) | DRSC15307 | 1.41e5 | 1.16e5 | 1.94e6 | 2.18e6 | inactive
Hmx (GeneID 42110) | DRSC24958 | 6.60e5 | 6.84e5 | 1.08e6 | 1.09e6 | inactive
Hmx (GeneID 42110) | DRSC25028 | 5.38e5 | 3.39e5 | 5.20e5 | 4.54e5 | inactive
Fer3HCH (GeneID 32260) | DRSC19892 | 4.57e5 | 3.58e5 | 4.58e6 | 3.59e6 | inactive
Fer3HCH (GeneID 32260) | DRSC26911 | 3.59e5 | 4.03e5 | 5.69e5 | 5.47e5 | inactive

Ordered by “Renilla control light, replicate 2” (high to low): some entries from above
Gene | amplicon | firefly reporter light, replicate 1 | firefly reporter light, replicate 2 | Renilla control light, replicate 1 | Renilla control light, replicate 2 | activity call
l(1)sc (GeneID 30983) | DRSC18789 | 1.80e5 | 1.85e5 | 2.72e6 | 1.93e6 | inactive
CG13001 (GeneID 32684) | DRSC24970 | 8.16e5 | 1.07e6 | 1.02e6 | 1.24e6 | inactive
